Laboratory results published in patent publication US20160151461A1, “Cardio-Metabolic and Vascular Effects of GLP-1 Metabolites” (THE TRUSTEES OF THE UNIVERSITY OF PENNSYLVANIA, priority 2013, published 2016).
For at least one compound, name, drawing or mass did not settle the structure.

How the values were obtained:
[1] = test system: conscious, chronically instrumented dogs; test: rapid pacing induced stress (72 hour) in conscious, chronically instrumented dogs, hemodynamic measurements; type: in vivo; settings: 72 hours rapid pacing stress, vs sham vehicle
From the text: FIG. 7 illustrates characteristic instrumentation of conscious, chronically instrumented dogs studied in the laboratory. Under sterile surgical technique, the animals are instrumented as indicated and allowed to recover fully from their surgery. LV, aortic, and left atrial catheters were used to measure pressures. LV Konigsberg® transducer was used to measure isovolumic contractility and relaxation as measures of systolic and diastolic function. Ultrasonic dimension crystals were used to measure LV shortening and LV filling rates. Pacing leads were attached to the left atrial appendage. Transonics® flow probes were placed around the left circumflex coronary artery and right renal artery to measure coronary and renal blood flow.
Experiments were performed where 25 conscious, chronically instrumented dogs (FIG. 7) were subjected to a rapid pacing induced stress which recapitulates the hemodynamic perturbations experienced by patients with sudden onset of paroxysmal atrial fibrillation (FIG. 8). Dogs were studied before and daily during the 72 hour pacing stress. […] All measurements were made during intrinsic sinus rhythm 20-30 minutes after cessation of pacing. Hemodynamic measurements included: • LV systolic and diastolic pressures, mean arterial pressures, heart rate • Systolic function: LV contractility (systolic contractile function), LV fractional shortening • Diastolic function: LV isovolumic relaxation time constant, LV filling rate • Flows: systemic, coronary and renal blood flows

[2] = test system: conscious chronically instrumented dogs with pacing induced heart failure; test: pacing induced model of dilated cardiomyopathy in conscious chronically instrumented dogs (72 hours of rapid ventricular pacing); type: in vivo; settings: after 72 hours of rapid ventricular pacing, vs Control
Protocol: In order to compare the vasoactive effects of different classes of incretins, experiments were designed to study the pacing induced model of dilated cardiomyopathy in conscious chronically instrumented dogs (FIG. 3). These animals were instrumented to examine the effects of equal concentrations of various classes of incretins on coronary blood flow and renal blood flow. All dogs underwent 72 hours of rapid ventricular pacing following which coronary flow responses were measured (Control). Rapid pacing was associated with 30-35% declines in coronary blood flow and renal blood flow respectively. […] This supports the notion that the native peptide and active metabolites have vasoactive as well as glucose-stimulatory properties. The renal vascular effects support the claims for use in heart failure complicated by renal failure (cardio-renal syndrome). The coronary vasodilator properties support the claims for the use in acute coronary syndromes and microvascular angina.

Question: With `CCCCCCCCCCCCCCCC(=O)N[C@@H](CCC(=O)NCCCC[C@H](NC(=O)[C@H](C)NC(=O)[C@H](C)NC(=O)[C@H](CCC(N)=O)NC(=O)CNC(=O)[C@H](CCC(=O)O)NC(=O)[C@H](CC(C)C)NC(=O)[C@H](Cc1ccc(O)cc1)NC(=O)[C@H](CO)NC(=O)[C@H](CO)NC(=O)[C@@H](NC(=O)[C@H](CC(=O)O)NC(=O)[C@H](CO)NC(=O)[C@@H](NC(=O)[C@H](Cc1ccccc1)NC(=O)[C@@H](NC(=O)CNC(=O)[C@H](CCC(=O)O)NC(=O)[C@H](C)NC(=O)[C@@H](N)Cc1cnc[nH]1)[C@@H](C)O)[C@@H](C)O)C(C)C)C(=O)N[C@@H](CCC(=O)O)C(=O)N[C@@H](Cc1ccccc1)C(=O)N[C@H](C(=O)N[C@@H](C)C(=O)N[C@@H](Cc1c[nH]c2ccccc12)C(=O)N[C@@H](CC(C)C)C(=O)N[C@H](C(=O)N[C@@H](CCCNC(=N)N)C(=O)NCC(=O)N[C@@H](CCCNC(=N)N)C(=O)NCC(=O)O)C(C)C)[C@@H](C)CC)C(=O)O` [liraglutide, reference compound] as the molecule, how does the “LV systolic and diastolic function” value [1] read?
Answer: had no effect

Question: And the coronary blood flow [1]?
Answer: had no effect

Question: What about the renal blood flow [1] of the same molecule?
Answer: had no effect

Question: And the systemic blood flow [1]?
Answer: had no effect

Question: What about the coronary blood flow [2] of the same molecule?
Answer: did not preserve coronary or renal blood flow

Question: And the renal blood flow [2]?
Answer: did not preserve coronary or renal blood flow

Question: `N#C[C@@H]1C[C@@H]2C[C@@H]2N1C(=O)[C@@H](N)C12CC3CC(CC(O)(C3)C1)C2` [saxagliptin, reference compound] was tested. Which “LV systolic and diastolic function” value [1] did it give?
Answer: had no effect

Question: What about the coronary blood flow [1] of the same molecule?
Answer: had no effect

Question: What about the renal blood flow [1] of the same molecule?
Answer: had no effect

Question: What about the systemic blood flow [1] of the same molecule?
Answer: had no effect

Question: And the coronary blood flow [2]?
Answer: did not preserve coronary or renal blood flow

Question: And the renal blood flow [2]?
Answer: did not preserve coronary or renal blood flow
